The data set is described as follows: Phase solubility diagram of container with excess cinnarizine. The class given is physicochemical. Conditions: 20 mM 1 used with excess cinnarizine, 50 mM NaOAc, pD 4.74.

Take `C(=C\c1ccccc1)/CN1CCN(C(c2ccccc2)c2ccccc2)CC1` [cinnarizine]: the “concentration of drug in final solution” value is 260 µM.

Source of the values: publication PMC4412466 (Supramolecular chemistry, 2014).
